This passage reports binding results from publication PMC9906428, “LONP1 targets HMGCS2 to protect mitochondrial function and attenuate chronic kidney disease” (EMBO Molecular Medicine, 2023).

Assay [1] concerns the target T1, LONP1-Flag (UniProt P36776).
T1 sequence: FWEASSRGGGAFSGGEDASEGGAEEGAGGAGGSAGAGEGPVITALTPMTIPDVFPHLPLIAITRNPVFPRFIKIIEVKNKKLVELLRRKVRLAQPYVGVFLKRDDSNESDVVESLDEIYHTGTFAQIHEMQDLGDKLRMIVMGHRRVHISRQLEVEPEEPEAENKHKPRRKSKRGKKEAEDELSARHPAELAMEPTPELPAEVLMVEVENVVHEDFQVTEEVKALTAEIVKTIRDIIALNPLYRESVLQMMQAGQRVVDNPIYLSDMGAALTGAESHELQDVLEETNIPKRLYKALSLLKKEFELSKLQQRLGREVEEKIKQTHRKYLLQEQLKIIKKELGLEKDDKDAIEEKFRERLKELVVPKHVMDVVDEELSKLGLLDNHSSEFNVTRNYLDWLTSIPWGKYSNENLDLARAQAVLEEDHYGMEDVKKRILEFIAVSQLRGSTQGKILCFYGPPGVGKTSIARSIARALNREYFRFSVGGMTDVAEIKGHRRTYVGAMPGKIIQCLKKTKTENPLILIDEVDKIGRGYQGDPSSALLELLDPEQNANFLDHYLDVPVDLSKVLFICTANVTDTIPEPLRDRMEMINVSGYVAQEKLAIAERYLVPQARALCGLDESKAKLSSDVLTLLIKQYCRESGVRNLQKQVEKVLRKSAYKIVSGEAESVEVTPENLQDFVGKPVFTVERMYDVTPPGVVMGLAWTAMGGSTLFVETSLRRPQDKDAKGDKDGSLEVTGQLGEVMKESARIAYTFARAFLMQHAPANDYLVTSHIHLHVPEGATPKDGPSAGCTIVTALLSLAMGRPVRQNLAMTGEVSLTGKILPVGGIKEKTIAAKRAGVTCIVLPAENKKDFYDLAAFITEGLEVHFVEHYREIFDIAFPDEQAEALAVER
Kind of assay: co-IP; 293T cells transfected with LONP1-Flag and HMGCS2 plasmids, Bortezomib for 4 h before collection; mouse anti-flag antibody (20 μg/ml) or normal mouse IgG, protein A/G magnetic beads, 4°C; 50 mM Tris, 150 mM NaCl, 0.25% Tween 20, pH 7.5; western blot.

Assay [2] concerns the target T2, LONP1-GST (human) (UniProt P36776).
T2 sequence: T1 sequence
Kind of assay: pull-down; purified LONP1-GST as bait, prey HMGCS2 from 293T cell lysates; Pierce GST Protein Interaction Pull-Down Kit; only the target purified.

Results are given in words; binding and its absence hold for the method and conditions named. Binding seen in cells or lysates may run through a third protein. Some results given as binding are weak or reduced against the parent protein; the word gives no strength. Sequences can lack the tags named with a protein.

B1: HMGCS2 (from HMGCS2 plasmid, 293T cells) (enzyme, UniProt P54868 38-508)
chain: TASAVPLAKTDTWPKDVGILALEVYFPAQYVDQTDLEKYNNVEAGKYTVGLGQTRMGFCSVQEDINSLCLTVVQRLMERIQLPWDSVGRLEVGTETIIDKSKAVKTVLMELFQDSGNTDIEGIDTTNACYGGTASLFNAANWMESSSWDGRYAMVVCGDIAVYPSGNARPTGGAGAVAMLIGPKAPLALERGLRGTHMENVYDFYKPNLASEYPIVDGKLSIQCYLRALDRCYTSYRKKIQNQWKQAGSDRPFTLDDLQYMIFHTPFCKMVQKSLARLMFNDFLSASSDTQTSLYKGLEAFGGLKLEDTYTNKDLDKALLKASQDMFDKKTKASLYLSTHNGNMYTSSLYGCLASLLSHHSAQELAGSRIGAFSYGSGLAASFFSFRVSQDAAPGSPLDKLVSSTSDLPKRLASRKCVSPEEFTEIMNQREQFYHKVNFSPPGDTNSLFPGTWYLERVDEQHRRKYARRPV
As for B1, in assay [1], the binding entry is reported as “binds”.

B2: HMGCS2 (from 293T cell lysates) (enzyme, UniProt P54868 38-508)
chain: B1 chain
Turning to B2, the binding result in assay [2] is given as “binds”.
